Laboratory results taken from patent EP2718307B1 (Polyphor AG, priority 2011, dated 2012).
Some peptides are written in HELM: one residue between dots, names in brackets for other building blocks, links after the first $. One purity is given for all peptides; the source may state it once.

Test: general procedure: Fmoc solid-phase peptide synthesis; Fmoc-Pro-2-chlorotrityl resin
Settings: whole synthesis, UV 220 nm

PEPTIDE1{Y.H.A.C.S.A.[UDTyrMe].[UOrniPr].R.Y.C.Y.Q.[ULysiPr].[UDPro].P}$PEPTIDE1,PEPTIDE1,16:R2-1:R1|PEPTIDE1,PEPTIDE1,4:R3-11:R3$$$V2.0
final HPLC purity: 95%

PEPTIDE1{Y.H.A.C.S.A.[UDTyr].[UDab].R.Y.C.Y.Q.[ULysiPr].[UDPro].P}$PEPTIDE1,PEPTIDE1,16:R2-1:R1|PEPTIDE1,PEPTIDE1,4:R3-11:R3$$$V2.0
final HPLC purity: 95%

PEPTIDE1{Y.H.Y.C.S.A.[UDPro].[UOrniPr].R.Y.C.Y.Q.[ULysiPr].[UDPro].P}$PEPTIDE1,PEPTIDE1,16:R2-1:R1|PEPTIDE1,PEPTIDE1,4:R3-11:R3$$$V2.0
final HPLC purity: 95%

PEPTIDE1{Y.H.Y.C.S.A.[UDTyr].[UOrniPr].R.Y.C.Y.Q.[ULysiPr].[UDPro].P}$PEPTIDE1,PEPTIDE1,16:R2-1:R1|PEPTIDE1,PEPTIDE1,4:R3-11:R3$$$V2.0
final HPLC purity: 95%

PEPTIDE1{Y.H.[UTyrMe].C.S.A.[UDPro].[UOrniPr].R.Y.C.Y.Q.[ULysiPr].[UDPro].P}$PEPTIDE1,PEPTIDE1,16:R2-1:R1|PEPTIDE1,PEPTIDE1,4:R3-11:R3$$$V2.0
final HPLC purity: 95%

PEPTIDE1{Y.H.[UTyrMe].C.S.A.[UDTyrMe].[UOrniPr].R.Y.C.Y.Q.[ULysiPr].[UDPro].P}$PEPTIDE1,PEPTIDE1,16:R2-1:R1|PEPTIDE1,PEPTIDE1,4:R3-11:R3$$$V2.0
final HPLC purity: 95%
